US20120101024A1, “Methods and Compositions for Differentiating Embryonic Stem Cells” (REGENERATIVE RESEARCH FOUNDATION, priority 2010, published 2012)
Results are given in words; binding and its absence hold for the method and conditions named. Binding seen in cells or lysates may run through a third protein. Some entries that bind do so weakly or less than the wild type. For some assays here: Tags and fused reporters may be left off the sequences shown.

Protein sequences, listed by entry. Tags and fused reporters are not part of them. Lines headed by an entry give the natural chain unless they say otherwise; changes in a name come on top.
UniProt P13385: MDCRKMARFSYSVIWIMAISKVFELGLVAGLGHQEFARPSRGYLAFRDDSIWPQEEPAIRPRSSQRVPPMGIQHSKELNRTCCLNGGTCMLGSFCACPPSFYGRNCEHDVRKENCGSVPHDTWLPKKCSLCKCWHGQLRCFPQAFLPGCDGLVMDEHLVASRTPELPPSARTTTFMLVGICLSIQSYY

B1: NPTX1-His protein (ligand)
chain: HHHHHHQDFGPTRFICTSVPVDADMCAASVAAGGAEELRSSVLQLRETVLQQKETILSQKETIRELTAKLGRCESQSTLDPGAGEARAGGGRKQPGSGKNTMGDLSRTPAAETLSQLGQTLQSLKTRLENLEQYSRLNSSSQTNSLKDLLQSKIDELERQVLSRVNTLEEGKGGPRNDTEERVKIETALTSLHQRISELEKGQKDNRPGDKFQLTFPLRTNYMYAKVKKSLPEMYAFTVCMWLKSSATPGVGTPFSYAVPGQANELVLIEWGNNPMEILINDKVAKLPFVINDGKWHHICVTWTTRDGVWEAYQDGTQGGSGENLAPYHPIKPQGVLVLGQEQDTLGGGFDATQAFVGELAHFNIWDRKLTPGEVYNLATCSTKALSGNVIAWAESHIEIYGGATKWTFEACRQIN
B2: NPTX1 (ligand)
chain: QDFGPTRFICTSVPVDADMCAASVAAGGAEELRSSVLQLRETVLQQKETILSQKETIRELTAKLGRCESQSTLDPGAGEARAGGGRKQPGSGKNTMGDLSRTPAAETLSQLGQTLQSLKTRLENLEQYSRLNSSSQTNSLKDLLQSKIDELERQVLSRVNTLEEGKGGPRNDTEERVKIETALTSLHQRISELEKGQKDNRPGDKFQLTFPLRTNYMYAKVKKSLPEMYAFTVCMWLKSSATPGVGTPFSYAVPGQANELVLIEWGNNPMEILINDKVAKLPFVINDGKWHHICVTWTTRDGVWEAYQDGTQGGSGENLAPYHPIKPQGVLVLGQEQDTLGGGFDATQAFVGELAHFNIWDRKLTPGEVYNLATCSTKALSGNVIAWAESHIEIYGGATKWTFEACRQIN

What was measured:
CRIPTO (human) [1] = biological target: CRIPTO (human) (UniProt P13385); test: co-immunoprecipitation from the membrane fraction of hESCs treated 1 hour with NPTX1-His conditioned media; Western blot
CRIPTO (human) [2] = biological target: CRIPTO (human) (UniProt P13385); test: co-immunoprecipitation with anti-CRIPTO antibody from culture media and cell membrane lysate; Western blot with anti-NPTX1

Binder	binding (CRIPTO (human) [1])	binding (CRIPTO (human) [2])
B1	binds	
B2		binds
